Data source: PubChem BioAssay AID1224826 (NIAID, 2016)
The deposit covers about 17,000 reagents; shown is a random part of them. In the full data, about 1,110 (6.6%) were called active. 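Active means lowered or raised reporter signal; replicate intensities are raw and not normalised per plate.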 The numbers tell different reagents against one gene apart.

Aim: 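Genes that change LPS-induced Tnf promoter activity in mouse macrophages when knocked down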 (primary screen)
Cell system: RAW264.7 G9 macrophages from mouse bearing reporters for p65 (GFP) and the Tnf promoter (mCherry)
Reagents: siRNA pool against mouse genes, 100 nM
Timing: 16 h of LPS stimulation, after 2 days of siRNA transfection
Challenge: bacterial lipopolysaccharide (Salmonella minnesota R595), 10 ng/ml
Measurement: 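Imaged Tnf reporter mCherry in nuclei, minus background, normalised per plate to the median and expressed as robust z-scores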
Direction: Tnf reporter robust z-score: higher = stronger Tnf promoter reporter signal after LPS; Tnf reporter intensity: higher = stronger Tnf promoter reporter signal
Active means: 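a well counts as active at a score of -1.3 or below (Tlr4 knock-down control median) or above 3 (raised signal); controls and wells holding fewer than 50 cells are excluded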
Meaning of the calls: active = Tnf reporter clearly lowered or raised; inactive = no clear change in Tnf reporter

The opening 3 records as a preview:
| target | reagent | Tnf reporter robust z-score | fewer than 50 cells in well | Tnf reporter intensity, replicate 1 | Tnf reporter intensity, replicate 2 | activity call |
| --- | --- | --- | --- | --- | --- | --- |
| Agrp | 1 | 0.92 | enough cells in well | 197 | 248 | inactive |
| Tab2 | 1 | -1.29 | enough cells in well | 163 | 105 | inactive |
| Ttc28 | 1 | 1.4 | enough cells in well | 320 | 260 | inactive |

Main list, repeating the preview:
| target | reagent | Tnf reporter robust z-score | fewer than 50 cells in well | Tnf reporter intensity, replicate 1 | Tnf reporter intensity, replicate 2 | activity call |
| --- | --- | --- | --- | --- | --- | --- |
| Agrp | 1 | 0.92 | enough cells in well | 197 | 248 | inactive |
| Tab2 | 1 | -1.29 | enough cells in well | 163 | 105 | inactive |
| Ttc28 | 1 | 1.4 | enough cells in well | 320 | 260 | inactive |
| Skil | 1 | 0.55 | enough cells in well | 314 | 270 | inactive |
| Rgs17 | 1 | -0.24 | enough cells in well | 325 | 161 | inactive |
| Pde4dip | 1 | -0.32 | enough cells in well | 101 | 84 | inactive |
| Pde4dip | 2 | 0.02 | enough cells in well | 198 | 172 | inactive |
| Pde4dip | 3 | -0.31 | enough cells in well | 187 | 135 | inactive |
| Ppm1l | 1 | -2.06 | enough cells in well | 83.8 | 51.5 | active |
| Or4c122 | 1 | 0.24 | enough cells in well | 221 | 148 | inactive |
| Trp53 | 1 | -0.81 | enough cells in well | 182 | 148 | inactive |
| Cav3 | 1 | -0.86 | enough cells in well | 179 | 143 | inactive |
| Ddx39a | 1 | 0.65 | enough cells in well | 218 | 206 | inactive |
| Sec11c | 1 | – | fewer than 50 cells per well; well left out of calls | 39 | 55.3 | inactive |
| Ciita | 1 | -0.13 | enough cells in well | 149 | 141 | inactive |
| Tmprss4 | 1 | – | fewer than 50 cells per well; well left out of calls | 138 | 89 | inactive |
| Nudt14 | 1 | -0.83 | enough cells in well | 136 | 107 | inactive |
| Reg4 | 1 | -0.09 | enough cells in well | 108 | 140 | inactive |
| Fev | 1 | -0.59 | enough cells in well | 191 | 114 | inactive |
| Slc48a1 | 1 | – | fewer than 50 cells per well; well left out of calls | 182 | 30.2 | inactive |
| Slc16a7 | 1 | -1.3 | enough cells in well | 41.9 | 54.4 | active |
| Tet2 | 1 | 1.72 | enough cells in well | 299 | 179 | inactive |
| Cimip2c | 1 | 0.16 | enough cells in well | 225 | 77.8 | inactive |
| P2rx7 | 1 | -0.31 | enough cells in well | 203 | 173 | inactive |
